Laboratory results taken from the supplement of paper PMC7877785.
± gives the uncertainty stated by the source. Many of these values have a large error.

Assay: self-splicing fitness, log relative to wild type (ln ratio); higher = more splicing; Tetrahymena group I intron in knt gene, E. coli kanamycin selection, DiMSum; sequences stand for … in CUCUCU…GGAGGGAAAAGUUAUCAGGCAUGCACCUGGUAGCUAGUCUUUAAACCAAUAGAUUGCAUCGGUUUAAAAGGCAAGACCGUCAAAUUGCGGGAAAGGGGUCAACAGCCGUUCAGUACCAAGUCUCAGGGGAAACUUUGAGAUGGCCUUGCAAAGGGUAUGGUAAUAAGCUGACGGACAUGGUCCUAACCACGCAGCCAAGUCCUAAGUCAACAGAUCUUCUGUUGAUAUGGAUGCAGUUCACAGACUAAAUGUCGGUCGGGGAAGAUGUAUUCUUCUCAUAAGAUAUAGUCGGACCUCUCCUUAAUGGGAGCUAGCGGAUGAAGUGAUGCAACACUGGAGCCGCUGGGAACUAAUUUGUAUGCGAAAGUAUAUUGAUUAGUUUUGGAGUACUCGUGGUCG
How it was run: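 The eight P1ex-region nucleotides of an intron in the knt kanamycin-resistance gene on pET-22b(+) were all randomised and the library put into E. coli BL21(DE3). Six replicate transformations were grown overnight at 37°C or 30°C on LB agar with or without 25 μg/mL kanamycin, together with 100 μg/mL carbenicillin, 50 μM IPTG and 0.2% rhamnose. Colonies were pooled and amplicon-sequenced on an Illumina HiSeq 2500. Fitness from DiMSum is the error-weighted combination of wild-type-normalised replicate fold changes, kanamycin over none.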

Row | Sequence | self-splicing fitness (ln) (30 °C) | self-splicing fitness (ln) (37 °C)
1 | CUGAAGCAAUAUUACGCCCG | -0.0662 ± 0.23 | 0.309 ± 0.24
2 | UUCUAGCAAUAUUACGCAAC |  | -2.74 ± 0.75
3 | CAGCAGCAAUAUUACGUCCC |  | -1.99 ± 0.79
4 | UUGGAGCAAUAUUACGACGG | 0.664 ± 0.22 | -0.775 ± 0.29
5 | CUGGAGCAAUAUUACGAAUU | -3.48 ± 0.56 | 
6 | UGUGAGCAAUAUUACGAUUU | -4.55 ± 0.6 | 
7 | CGGGAGCAAUAUUACGACCU | -0.87 ± 0.14 | -0.864 ± 0.18
8 | UUUUAGCAAUAUUACGGAAC |  | -1.62 ± 1.1
9 | UCUCAGCAAUAUUACGUUUA | -2.98 ± 0.18 | -1.08 ± 0.13
10 | CUAUAGCAAUAUUACGCCAU | -2.66 ± 0.39 | -2.45 ± 0.37
11 | GGAGAGCAAUAUUACGCGUC | -2.52 ± 0.52 | -2.42 ± 0.77
12 | AGGUAGCAAUAUUACGAAGU | -3.22 ± 0.026 | -1.56 ± 0.037
13 | CUUCAGCAAUAUUACGAGCA | -4.17 ± 0.6 | 
14 | UUUGAGCAAUAUUACGCUAA |  | -2.32 ± 0.65
15 | CGGGAGCAAUAUUACGCCGA | -1.56 ± 0.56 | 
16 | GUUGAGCAAUAUUACGAAGU | -3.28 ± 0.77 | -0.903 ± 0.51
17 | AGCGAGCAAUAUUACGGACG | -3.09 ± 0.63 | 
18 | UAAAAGCAAUAUUACGAGCC | -1.96 ± 0.6 | -1.17 ± 0.52
19 | UGAAAGCAAUAUUACGCCUC |  | -2.43 ± 0.5
20 | ACCGAGCAAUAUUACGCAGC | -4.02 ± 0.47 | -2.84 ± 0.48
21 | UCGUAGCAAUAUUACGCUAC | -4.4 ± 1 | -0.234 ± 1.4
22 | CCAGAGCAAUAUUACGAGCC | -4.07 ± 0.72 | 

Row | Sequence | self-splicing fitness (ln) (30 °C) | self-splicing fitness (ln) (37 °C)
23 | GUGUAGCAAUAUUACGAGGC | -2.53 ± 0.77 | -1.78 ± 0.69
24 | AGUAAGCAAUAUUACGCUUC | -3.44 ± 0.56 | -2.03 ± 0.64
25 | UCGGAGCAAUAUUACGAUUA | -3.92 ± 0.74 | 
26 | UCCCAGCAAUAUUACGGCCC | -2.36 ± 1.2 | 
27 | CGCUAGCAAUAUUACGCAAA | -2.81 ± 0.53 | 
28 | UAGGAGCAAUAUUACGACAA | -1.83 ± 0.69 | -1.99 ± 0.65
29 | GGCCAGCAAUAUUACGCGGC | -3.46 ± 0.24 | -2.18 ± 0.51
30 | CGGAAGCAAUAUUACGCACG | -3.89 ± 1 | 
31 | UGUGAGCAAUAUUACGCAAG | -3.34 ± 0.74 | -2.95 ± 0.61
32 | AGGCAGCAAUAUUACGCGAC | -3.7 ± 0.62 | -2.08 ± 0.64
33 | GAUAAGCAAUAUUACGCCGC | -3.54 ± 0.73 | 
34 | AUCUAGCAAUAUUACGGGCG | -0.656 ± 0.1 | -0.967 ± 0.11
35 | GGUGAGCAAUAUUACGAGCU | -1.32 ± 1.4 | 
36 | CUCGAGCAAUAUUACGCCGC | -3.07 ± 0.68 | 
37 | GUUUAGCAAUAUUACGUACC |  | -1.39 ± 1.2
38 | AUAUAGCAAUAUUACGCCAG | -3.8 ± 0.77 | -0.682 ± 0.51
39 | AAGUAGCAAUAUUACGAUCG | -1.43 ± 0.1 | -0.453 ± 0.15
40 | CUGAAGCAAUAUUACGAGCC |  | -2.48 ± 0.63
41 | UUGGAGCAAUAUUACGGAGA | -2.59 ± 0.37 | -1.08 ± 0.23
42 | GGCGAGCAAUAUUACGCAUU | -1.13 ± 0.11 | -0.998 ± 0.14
43 | GAGGAGCAAUAUUACGUCAA |  | -3.62 ± 0.52
44 | UUUAAGCAAUAUUACGCAAC |  | -2.89 ± 1.1

From no. 35 as far as 38, as listed above:
Row | Sequence | self-splicing fitness (ln) (30 °C) | self-splicing fitness (ln) (37 °C)
35 | GGUGAGCAAUAUUACGAGCU | -1.32 ± 1.4 | 
36 | CUCGAGCAAUAUUACGCCGC | -3.07 ± 0.68 | 
37 | GUUUAGCAAUAUUACGUACC |  | -1.39 ± 1.2
38 | AUAUAGCAAUAUUACGCCAG | -3.8 ± 0.77 | -0.682 ± 0.51

Following part

Row | Sequence | self-splicing fitness (ln) (30 °C) | self-splicing fitness (ln) (37 °C)
45 | ACUGAGCAAUAUUACGAGUA | -3.03 ± 0.61 | 
46 | CUCGAGCAAUAUUACGCUCG |  | -2.2 ± 1.1
47 | CCGGAGCAAUAUUACGUACC | -1.67 ± 0.61 | 
48 | UAACAGCAAUAUUACGCAAC | -3.57 ± 0.73 | -2.53 ± 0.54
49 | GCAGAGCAAUAUUACGCUAC | -3.88 ± 1.1 | 
50 | AGCUAGCAAUAUUACGCCGA |  | -0.779 ± 0.54
51 | GUGUAGCAAUAUUACGAAUU | -2.33 ± 0.064 | -1.85 ± 0.097
52 | UUAGAGCAAUAUUACGAAAC |  | -1.89 ± 0.57
53 | CGCAAGCAAUAUUACGCUUA | -3.58 ± 0.35 | -1.8 ± 0.18
54 | CAAGAGCAAUAUUACGACCC |  | -1.87 ± 0.52
55 | UAUAAGCAAUAUUACGCUUC | -3.58 ± 0.38 | -3.09 ± 1
56 | UCAUAGCAAUAUUACGAGGA | -3.42 ± 0.34 | -0.473 ± 0.21
57 | CUUGAGCAAUAUUACGAAGC | -1.84 ± 0.58 | -0.806 ± 0.51
58 | AGUGAGCAAUAUUACGGUAG |  | -2.58 ± 0.62
59 | CCAUAGCAAUAUUACGGGCC | -4.73 ± 0.58 | 
60 | GUUAAGCAAUAUUACGCGCG | -0.983 ± 0.09 | 0.0623 ± 0.14
61 | CAGCAGCAAUAUUACGAGUC | -4.41 ± 0.29 | -2.24 ± 0.14
62 | GAGGAGCAAUAUUACGGUAG | -4.41 ± 0.6 | -3.48 ± 0.59
63 | UAGUAGCAAUAUUACGGAAA | -1.35 ± 0.73 | 
64 | GAUGAGCAAUAUUACGUAUG | -4.97 ± 0.51 | 
65 | GGUUAGCAAUAUUACGCCCC |  | -1.98 ± 1.1
66 | UACAAGCAAUAUUACGCGGG | -2.43 ± 0.086 | -1.25 ± 0.099

Pulled one by one from above (four):
Row | Sequence | self-splicing fitness (ln) (30 °C) | self-splicing fitness (ln) (37 °C)
65 | GGUUAGCAAUAUUACGCCCC |  | -1.98 ± 1.1
62 | GAGGAGCAAUAUUACGGUAG | -4.41 ± 0.6 | -3.48 ± 0.59
58 | AGUGAGCAAUAUUACGGUAG |  | -2.58 ± 0.62
59 | CCAUAGCAAUAUUACGGGCC | -4.73 ± 0.58 | 

The listing continues:

Row | Sequence | self-splicing fitness (ln) (30 °C) | self-splicing fitness (ln) (37 °C)
67 | UUGGAGCAAUAUUACGAACA | -1.14 ± 0.63 | 
68 | CACCAGCAAUAUUACGUUAU | -3.86 ± 0.12 | -3.32 ± 0.15
69 | AUAUAGCAAUAUUACGCUGC | -4.32 ± 1 | 
70 | GUACAGCAAUAUUACGCCGA | -4.27 ± 0.73 | 
71 | ACAUAGCAAUAUUACGCAAC | -3.7 ± 0.52 | -2.79 ± 0.53
72 | AGAUAGCAAUAUUACGUUUC |  | -3.48 ± 0.52
73 | CCGUAGCAAUAUUACGCGAA | -2.43 ± 0.51 | -3.63 ± 0.73
74 | UGGGAGCAAUAUUACGGCAG | -3.28 ± 0.21 | -1.34 ± 0.17
75 | UACUAGCAAUAUUACGAACC | -3 ± 0.75 | 
76 | GUGCAGCAAUAUUACGCCCA | -0.167 ± 0.87 | 
77 | CGUUAGCAAUAUUACGCCGU | -3.27 ± 0.76 | 
78 | GCGGAGCAAUAUUACGGAAG | -3.53 ± 0.6 | 
79 | CGUCAGCAAUAUUACGCGAC |  | -1.61 ± 0.6
80 | CGAAAGCAAUAUUACGCCAC |  | -2.05 ± 0.57
81 | GCGCAGCAAUAUUACGCACG | -3.8 ± 0.59 | 
82 | UAAUAGCAAUAUUACGCCAA | -2.77 ± 0.55 | 
83 | GAUGAGCAAUAUUACGCGGG | -3.55 ± 0.42 | -3.59 ± 0.47
84 | CUAAAGCAAUAUUACGUCCC | -2.98 ± 0.63 | -2.09 ± 0.63
85 | GGAUAGCAAUAUUACGUGGG | -5.27 ± 0.51 | 
86 | AAUUAGCAAUAUUACGGGAC | -1.96 ± 0.87 | 
87 | CGGGAGCAAUAUUACGCCAU | -2.76 ± 0.55 | 
88 | UGUUAGCAAUAUUACGCUAA |  | -2.74 ± 0.75

Row | Sequence | self-splicing fitness (ln) (30 °C) | self-splicing fitness (ln) (37 °C)
89 | CGGGAGCAAUAUUACGUCAU |  | -3.01 ± 0.61
90 | GGAGAGCAAUAUUACGAAAA | -2.23 ± 0.62 | 
91 | CUUUAGCAAUAUUACGCCGC | -3.88 ± 1.1 | -1.29 ± 1.2
92 | AGGUAGCAAUAUUACGCAAU | -1.959 ± 0.017 | -1.03 ± 0.034
93 | CUAUAGCAAUAUUACGGACU | -3.05 ± 0.52 | 
94 | CUUUAGCAAUAUUACGAAGG | -1.23 ± 0.11 | -1.85 ± 0.21
95 | UCAUAGCAAUAUUACGUAAU | -3.87 ± 0.48 | -2.61 ± 0.28
96 | GCCCAGCAAUAUUACGAUCC | -0.561 ± 0.13 | -0.336 ± 0.19
97 | UCUAAGCAAUAUUACGCCGG | -1.15 ± 0.13 | -0.186 ± 0.15
98 | UGCGAGCAAUAUUACGGAGA | -3.53 ± 0.73 | -3.5 ± 0.6
99 | UUUAAGCAAUAUUACGAGCU | -2.94 ± 0.22 | -0.0484 ± 0.17
100 | AAGGAGCAAUAUUACGAGUG | -4.23 ± 1 | 
101 | CAUAAGCAAUAUUACGGGCC | -3.94 ± 0.6 | 
102 | CUUGAGCAAUAUUACGAUCC | -3.34 ± 1.1 | 
103 | AAUAAGCAAUAUUACGCCCC | 0.198 ± 0.2 | -0.311 ± 0.24
104 | GCAGAGCAAUAUUACGCAAU | -4.13 ± 0.61 | 
105 | AGAAAGCAAUAUUACGGAGC | -4.74 ± 0.73 | -3.91 ± 0.59
106 | GAGGAGCAAUAUUACGCGAG | -2.95 ± 0.61 | 
107 | AAGGAGCAAUAUUACGUCGC | -3.93 ± 0.6 | 
